# Experimental data taken from the supplement of paper PMC10849652.
# Protein sequences, listed by entry. Tags and fused reporters are not part of them. Lines headed by an entry give the natural chain unless they say otherwise; changes in a name come on top.
# UniProt Q9Y530: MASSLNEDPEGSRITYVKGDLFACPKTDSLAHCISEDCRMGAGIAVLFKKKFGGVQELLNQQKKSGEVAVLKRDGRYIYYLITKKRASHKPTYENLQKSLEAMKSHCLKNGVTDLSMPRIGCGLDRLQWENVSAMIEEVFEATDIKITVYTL
# UniProt Q9BXB4: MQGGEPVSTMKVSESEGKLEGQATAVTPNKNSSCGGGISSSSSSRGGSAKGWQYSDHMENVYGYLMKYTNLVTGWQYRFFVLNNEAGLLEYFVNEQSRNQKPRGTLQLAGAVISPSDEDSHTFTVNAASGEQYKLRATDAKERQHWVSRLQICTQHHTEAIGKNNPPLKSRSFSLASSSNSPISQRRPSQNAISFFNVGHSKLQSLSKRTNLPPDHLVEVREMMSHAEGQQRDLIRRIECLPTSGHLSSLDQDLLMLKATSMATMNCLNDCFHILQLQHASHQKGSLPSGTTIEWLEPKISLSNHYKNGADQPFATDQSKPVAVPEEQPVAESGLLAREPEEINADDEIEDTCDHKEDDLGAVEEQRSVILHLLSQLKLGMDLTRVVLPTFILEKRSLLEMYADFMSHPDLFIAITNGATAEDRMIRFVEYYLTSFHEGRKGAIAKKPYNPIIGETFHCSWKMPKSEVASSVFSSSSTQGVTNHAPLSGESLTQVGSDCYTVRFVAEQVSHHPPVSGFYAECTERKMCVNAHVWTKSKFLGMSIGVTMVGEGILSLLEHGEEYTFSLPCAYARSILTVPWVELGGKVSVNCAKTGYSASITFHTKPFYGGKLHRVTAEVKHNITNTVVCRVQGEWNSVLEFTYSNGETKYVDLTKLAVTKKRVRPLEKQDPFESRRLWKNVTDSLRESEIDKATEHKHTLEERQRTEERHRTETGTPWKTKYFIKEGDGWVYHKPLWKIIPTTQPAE
# UniProt P22059, whole entry, looked up: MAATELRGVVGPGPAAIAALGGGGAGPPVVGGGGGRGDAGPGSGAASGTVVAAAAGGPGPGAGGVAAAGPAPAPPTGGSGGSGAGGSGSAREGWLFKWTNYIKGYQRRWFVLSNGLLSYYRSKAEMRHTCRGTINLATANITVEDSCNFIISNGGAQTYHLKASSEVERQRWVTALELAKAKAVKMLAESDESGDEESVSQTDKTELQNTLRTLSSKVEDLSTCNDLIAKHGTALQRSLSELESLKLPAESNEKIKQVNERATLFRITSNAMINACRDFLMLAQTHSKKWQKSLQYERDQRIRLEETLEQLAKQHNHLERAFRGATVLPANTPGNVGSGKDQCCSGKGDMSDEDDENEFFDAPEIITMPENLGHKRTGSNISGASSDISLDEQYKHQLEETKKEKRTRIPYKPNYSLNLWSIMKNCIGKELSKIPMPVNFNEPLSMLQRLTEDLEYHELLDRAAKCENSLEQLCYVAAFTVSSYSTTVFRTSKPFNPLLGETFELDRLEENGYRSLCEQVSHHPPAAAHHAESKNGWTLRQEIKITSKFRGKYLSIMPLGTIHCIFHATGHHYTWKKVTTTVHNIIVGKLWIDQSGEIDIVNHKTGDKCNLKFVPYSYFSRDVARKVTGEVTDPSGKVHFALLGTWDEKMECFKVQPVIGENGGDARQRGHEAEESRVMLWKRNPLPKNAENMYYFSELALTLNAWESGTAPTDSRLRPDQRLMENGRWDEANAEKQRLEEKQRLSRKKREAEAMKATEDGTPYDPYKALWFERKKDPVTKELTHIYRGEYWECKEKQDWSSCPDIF
# UniProt Q8N6M0: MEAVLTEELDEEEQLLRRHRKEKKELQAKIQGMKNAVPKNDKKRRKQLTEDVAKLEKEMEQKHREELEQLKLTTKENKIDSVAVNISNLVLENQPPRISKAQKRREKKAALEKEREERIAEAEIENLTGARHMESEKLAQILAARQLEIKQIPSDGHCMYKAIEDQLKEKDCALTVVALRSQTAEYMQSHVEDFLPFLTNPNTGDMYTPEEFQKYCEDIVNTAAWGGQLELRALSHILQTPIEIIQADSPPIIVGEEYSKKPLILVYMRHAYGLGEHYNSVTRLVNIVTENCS
# UniProt Q9H300: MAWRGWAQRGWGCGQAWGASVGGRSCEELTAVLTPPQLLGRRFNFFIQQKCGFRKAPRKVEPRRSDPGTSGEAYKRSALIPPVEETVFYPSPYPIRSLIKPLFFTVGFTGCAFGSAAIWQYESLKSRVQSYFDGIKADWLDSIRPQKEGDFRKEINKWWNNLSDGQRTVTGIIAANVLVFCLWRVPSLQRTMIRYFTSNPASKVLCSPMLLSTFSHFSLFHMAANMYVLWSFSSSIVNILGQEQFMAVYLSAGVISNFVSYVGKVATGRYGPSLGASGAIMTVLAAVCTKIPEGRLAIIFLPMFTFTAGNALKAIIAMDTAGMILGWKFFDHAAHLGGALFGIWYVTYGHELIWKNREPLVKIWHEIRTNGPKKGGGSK
# UniProt Q9NWU1, whole entry, looked up: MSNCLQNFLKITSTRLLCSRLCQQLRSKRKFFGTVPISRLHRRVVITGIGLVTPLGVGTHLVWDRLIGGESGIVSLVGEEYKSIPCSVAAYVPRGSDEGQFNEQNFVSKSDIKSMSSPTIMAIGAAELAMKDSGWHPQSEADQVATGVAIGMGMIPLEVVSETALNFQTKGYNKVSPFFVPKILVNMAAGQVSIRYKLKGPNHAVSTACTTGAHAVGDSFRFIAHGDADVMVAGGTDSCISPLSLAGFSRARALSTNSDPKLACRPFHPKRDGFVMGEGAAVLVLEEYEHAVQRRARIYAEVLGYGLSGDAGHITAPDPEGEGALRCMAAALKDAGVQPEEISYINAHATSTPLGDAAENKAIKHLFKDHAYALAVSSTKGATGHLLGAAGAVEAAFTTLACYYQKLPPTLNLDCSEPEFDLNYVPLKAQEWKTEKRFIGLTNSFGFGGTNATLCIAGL
# UniProt Q9NRP0: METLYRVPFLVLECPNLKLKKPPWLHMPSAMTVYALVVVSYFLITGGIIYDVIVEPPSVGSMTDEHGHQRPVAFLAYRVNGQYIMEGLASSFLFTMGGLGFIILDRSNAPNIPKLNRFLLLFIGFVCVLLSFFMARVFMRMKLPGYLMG
# UniProt Q9BW27: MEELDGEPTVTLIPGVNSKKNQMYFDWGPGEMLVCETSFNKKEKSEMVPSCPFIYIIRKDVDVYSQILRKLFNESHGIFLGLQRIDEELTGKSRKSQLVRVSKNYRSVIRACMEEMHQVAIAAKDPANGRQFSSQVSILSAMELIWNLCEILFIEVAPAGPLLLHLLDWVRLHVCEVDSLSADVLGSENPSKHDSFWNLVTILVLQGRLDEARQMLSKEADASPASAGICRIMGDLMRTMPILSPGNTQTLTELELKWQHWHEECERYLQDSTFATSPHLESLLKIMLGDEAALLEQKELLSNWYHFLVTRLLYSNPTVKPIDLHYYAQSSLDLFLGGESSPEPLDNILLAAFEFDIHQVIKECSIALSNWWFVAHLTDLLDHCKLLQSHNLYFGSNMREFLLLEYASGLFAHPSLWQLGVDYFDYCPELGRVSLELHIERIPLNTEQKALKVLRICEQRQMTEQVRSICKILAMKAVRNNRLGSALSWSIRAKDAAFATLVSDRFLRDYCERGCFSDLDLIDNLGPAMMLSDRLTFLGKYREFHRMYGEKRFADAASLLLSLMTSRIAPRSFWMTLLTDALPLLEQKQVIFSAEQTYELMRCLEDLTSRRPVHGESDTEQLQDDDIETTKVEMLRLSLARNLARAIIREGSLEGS
# UniProt Q8NFH4: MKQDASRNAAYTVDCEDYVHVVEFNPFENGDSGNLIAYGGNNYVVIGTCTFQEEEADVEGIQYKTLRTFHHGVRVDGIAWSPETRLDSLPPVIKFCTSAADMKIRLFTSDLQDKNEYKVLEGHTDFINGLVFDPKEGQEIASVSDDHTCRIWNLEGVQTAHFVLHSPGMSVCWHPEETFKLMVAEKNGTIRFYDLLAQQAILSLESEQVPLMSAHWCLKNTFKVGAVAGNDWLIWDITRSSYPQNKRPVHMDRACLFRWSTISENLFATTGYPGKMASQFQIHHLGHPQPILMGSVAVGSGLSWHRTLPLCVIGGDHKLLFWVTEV
# UniProt Q9NP74: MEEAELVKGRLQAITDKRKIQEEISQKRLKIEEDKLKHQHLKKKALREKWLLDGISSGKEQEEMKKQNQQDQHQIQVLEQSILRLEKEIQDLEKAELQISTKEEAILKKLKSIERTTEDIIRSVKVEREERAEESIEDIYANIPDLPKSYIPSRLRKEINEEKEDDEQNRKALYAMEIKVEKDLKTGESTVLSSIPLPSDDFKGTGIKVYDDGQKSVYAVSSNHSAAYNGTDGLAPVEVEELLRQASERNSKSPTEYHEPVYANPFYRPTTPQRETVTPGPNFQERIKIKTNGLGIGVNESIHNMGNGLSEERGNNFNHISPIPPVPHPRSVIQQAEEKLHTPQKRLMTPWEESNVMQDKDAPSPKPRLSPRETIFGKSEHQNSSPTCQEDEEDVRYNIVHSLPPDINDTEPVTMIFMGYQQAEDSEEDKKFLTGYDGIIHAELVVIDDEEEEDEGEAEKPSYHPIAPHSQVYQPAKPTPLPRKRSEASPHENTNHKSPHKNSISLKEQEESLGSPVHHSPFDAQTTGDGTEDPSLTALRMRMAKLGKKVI
# UniProt Q9BPZ3: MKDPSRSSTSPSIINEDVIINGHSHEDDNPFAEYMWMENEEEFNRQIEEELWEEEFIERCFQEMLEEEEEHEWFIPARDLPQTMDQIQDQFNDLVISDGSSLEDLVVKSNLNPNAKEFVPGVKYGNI
# UniProt Q96RD7, whole entry, looked up: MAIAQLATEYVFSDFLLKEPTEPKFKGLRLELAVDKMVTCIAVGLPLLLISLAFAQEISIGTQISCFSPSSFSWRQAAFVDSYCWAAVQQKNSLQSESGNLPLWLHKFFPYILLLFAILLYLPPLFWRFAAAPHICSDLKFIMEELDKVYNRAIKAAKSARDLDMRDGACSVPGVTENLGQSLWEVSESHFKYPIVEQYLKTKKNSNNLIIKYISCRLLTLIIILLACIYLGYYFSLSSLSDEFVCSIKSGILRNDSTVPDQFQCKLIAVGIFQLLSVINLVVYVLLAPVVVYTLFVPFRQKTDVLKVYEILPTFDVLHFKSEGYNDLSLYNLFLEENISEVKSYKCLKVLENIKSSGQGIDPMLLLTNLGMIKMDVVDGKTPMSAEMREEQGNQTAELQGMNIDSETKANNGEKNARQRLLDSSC
# UniProt P55809: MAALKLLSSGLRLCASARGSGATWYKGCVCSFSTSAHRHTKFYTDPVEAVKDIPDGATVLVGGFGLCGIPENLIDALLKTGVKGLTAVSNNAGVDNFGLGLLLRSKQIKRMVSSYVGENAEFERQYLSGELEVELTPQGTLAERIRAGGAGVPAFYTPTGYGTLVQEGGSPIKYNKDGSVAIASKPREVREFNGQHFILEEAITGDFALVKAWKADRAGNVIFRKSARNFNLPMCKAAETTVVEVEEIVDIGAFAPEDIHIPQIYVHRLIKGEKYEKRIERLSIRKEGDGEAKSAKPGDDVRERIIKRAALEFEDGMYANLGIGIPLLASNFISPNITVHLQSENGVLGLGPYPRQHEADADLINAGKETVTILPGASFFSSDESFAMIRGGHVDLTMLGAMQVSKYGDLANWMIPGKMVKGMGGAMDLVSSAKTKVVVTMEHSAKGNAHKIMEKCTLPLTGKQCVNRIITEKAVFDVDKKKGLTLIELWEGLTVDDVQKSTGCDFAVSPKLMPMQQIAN
# UniProt Q96SU4: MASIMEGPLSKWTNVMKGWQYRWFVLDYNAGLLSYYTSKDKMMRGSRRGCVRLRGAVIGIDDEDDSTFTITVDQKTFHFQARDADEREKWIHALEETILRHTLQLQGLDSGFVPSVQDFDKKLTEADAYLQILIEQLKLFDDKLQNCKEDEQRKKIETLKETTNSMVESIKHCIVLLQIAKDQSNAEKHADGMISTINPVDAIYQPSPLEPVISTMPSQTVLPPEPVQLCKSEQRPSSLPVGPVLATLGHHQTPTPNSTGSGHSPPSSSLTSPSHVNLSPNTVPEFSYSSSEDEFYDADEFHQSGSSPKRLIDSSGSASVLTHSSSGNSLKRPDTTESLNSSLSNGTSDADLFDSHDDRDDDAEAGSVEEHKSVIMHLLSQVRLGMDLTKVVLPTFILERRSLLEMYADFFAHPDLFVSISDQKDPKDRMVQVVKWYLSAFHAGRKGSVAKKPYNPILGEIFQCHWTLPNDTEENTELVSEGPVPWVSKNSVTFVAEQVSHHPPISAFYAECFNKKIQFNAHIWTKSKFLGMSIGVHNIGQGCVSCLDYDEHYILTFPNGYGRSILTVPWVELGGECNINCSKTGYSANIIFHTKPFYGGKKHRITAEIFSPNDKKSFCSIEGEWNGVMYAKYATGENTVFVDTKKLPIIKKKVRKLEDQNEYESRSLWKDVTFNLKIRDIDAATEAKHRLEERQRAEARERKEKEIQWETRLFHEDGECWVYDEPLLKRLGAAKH
# Some of the results follow.
# Experiments:
# Experiment in all cases: log2 fold change, soluble protein after heating vs DMSO (PISA); higher = thermal stabilisation; K562 lysate, 10 uM; active = over 0.2 and 3.5 SD of the protein, either way, in both replicates (recomputed)
# [1] = compound: CCCS(=O)(=O)Nc1ccc(F)c(C(=O)c2c[nH]c3ncc(-c4ccc(Cl)cc4)cc23)c1F [vemurafenib]
# How it was run: (§1)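 Quantification was by TMTpro 16plex LC-MS/MS with equalised channel sums, applied to the supernatant after 21,000xg for 90 min. Samples were crude K562 extract at 1 mg/mL protein in PBS pH 7.4 with 1 mM MgCl2, treated with 10 μM compound for 30 min, heated for 3 min across 48°C-58°C, pooled and brought to 0.5% NP-40 at 4°C. Values are log-two fold changes in thermal stability relative to solvent controls, from duplicates.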
# [2] = compound: CCCS(=O)(=O)Nc1ccc(F)c(C(=O)c2c[nH]c3ncc(Cl)cc23)c1F
# How it was run: as §1
# [3] = compound: CCN(CCCOc1ccc2c(Nc3cc(CC(=O)Nc4cccc(F)c4)[nH]n3)ncnc2c1)CCOP(=O)(O)O [barasertib]
# How it was run: as §1
# [4] = compound: CC[C@@H]1C(=O)N(C)c2cnc(Nc3ccc(C(=O)NC4CCN(C)CC4)cc3OC)nc2N1C1CCCC1
# How it was run: as §1
# [5] = compound: CC[C@@H]1C(=O)N(C)c2cnc(Nc3ccc(C(=O)N[C@H]4CC[C@H](N5CCN(CC6CC6)CC5)CC4)cc3OC)nc2N1C(C)C [volasertib]
# How it was run: as §1
# [6] = compound: CCn1c(C(=O)N(C2CC2)C2CC2)cc2c3c(ncn3C)c(Nc3cc(C)n(C)n3)nc21
# How it was run: as §1
# [7] = compound: CCn1cc(-c2ccnc3[nH]c(-c4cccc(CN(C)C)c4)cc23)c(-c2ccc(NC(=O)N(C)C)cc2)n1
# How it was run: as §1
# [8] = compound: CN1CCC(CNc2ccc3ncc(-c4cccc(OC(F)(F)F)c4)n3n2)CC1
# How it was run: as §1
# [9] = compound: CN1CCN(CCOc2cc(OC3CCOCC3)c3c(Nc4c(Cl)ccc5c4OCO5)ncnc3c2)CC1 [saracatinib]
# How it was run: as §1
# [10] = compound: CN1CCN(c2nc(C3=C(c4c[nH]c5ccccc45)C(=O)NC3=O)c3ccccc3n2)CC1 [sotrastaurin]
# How it was run: as §1
# [11] = compound: CN1CC[C@H](c2c(O)cc(O)c3c(=O)cc(-c4ccccc4Cl)oc23)[C@H](O)C1 [alvocidib]
# How it was run: as §1
# [12] = compound: CN1CCc2c(c3ccccc3n2Cc2ccc(C(=O)NO)cc2)C1 [Tubastatin A]
# How it was run: as §1
# [13] = compound: CNC(=O)C1=CC=CC=C1NC2=NC(=NC=C2Cl)NC3=C(C=C(C=C3)N4CCOCC4)OC
# How it was run: as §1
# [14] = compound: CNC(=O)c1ccc(Nc2ncc(C(F)(F)F)c(NCc3nccnc3N(C)S(C)(=O)=O)n2)cc1 [defactinib]
# How it was run: as §1
# [15] = compound: CNc1nc(-c2ccc3c(N)n[nH]c3c2)cc(N2C[C@@H](C(=O)NC3CCCCC3)CC[C@H]2C)n1
# How it was run: as §1
# [16] = compound: COC(=O)N[C@@H](C)CNc1nccc(-c2cn(C(C)C)nc2-c2cc(Cl)cc(NS(C)(=O)=O)c2F)n1 [encorafenib]
# How it was run: as §1
# [17] = compound: COC(=O)[C@H](CCSC)NC(=O)C1=C(C=C(C=C1)NC[C@H](CS)N)C2=CC=CC=C2
# How it was run: as §1
# [18] = compound: COc1cc(Nc2ncc3c(n2)-c2ccc(Cl)cc2C(c2c(F)cccc2OC)=NC3)ccc1C(=O)O [alisertib]
# How it was run: as §1
# [19] = compound: COc1cc2nc(-c3cc(F)ccc3O)nc(N[C@@H]3CNC[C@H]3C(C)(C)O)c2cc1OC
# How it was run: as §1
# [20] = compound: COc1cc2ncnc(Nc3ccc(F)c(Cl)c3)c2cc1OCCCN1CCOCC1 [gefitinib]
# How it was run: as §1
Target,log2 fold change [1],log2 fold change [2],log2 fold change [3],log2 fold change [4],log2 fold change [5],log2 fold change [6],log2 fold change [7],log2 fold change [8],log2 fold change [9],log2 fold change [10],log2 fold change [11],log2 fold change [12],log2 fold change [13],log2 fold change [14],log2 fold change [15],log2 fold change [16],log2 fold change [17],log2 fold change [18],log2 fold change [19],log2 fold change [20]
OARD1 (UniProt Q9Y530),inactive: -0.011,inactive: 0.004,inactive: -0.01,inactive: -0.01,inactive: -0.031,inactive: 0.022,inactive: -0.056,inactive: -0.034,inactive: 0.006,inactive: 0.002,inactive: -0.003,inactive: -0.097,inactive: 0,inactive: 0.037,inactive: -0.11,inactive: 0.011,inactive: 0.018,inactive: 0.011,inactive: 0.028,inactive: -0.014
OSBPL11 (UniProt Q9BXB4),inactive: -0.053,inactive: 0.025,inactive: 0.027,inactive: -0.022,inactive: -0.046,inactive: -0.043,inactive: 0.154,inactive: 0.073,inactive: 0.063,inactive: 0.01,inactive: -0.043,inactive: 0.24,inactive: -0.071,inactive: 0.022,inactive: 0.046,inactive: -0.01,inactive: 0.048,inactive: -0.012,inactive: 0.082,inactive: -0.019
OSBP (UniProt P22059),inactive: -0.052,inactive: -0.007,inactive: -0.004,inactive: -0.076,inactive: -0.091,inactive: 0.041,inactive: -0.045,inactive: -0.032,inactive: 0.011,inactive: 0.026,inactive: 0,inactive: 0.06,inactive: -0.193,inactive: -0.009,inactive: -0.155,inactive: 0.017,inactive: 0.001,inactive: 0.026,inactive: 0.042,inactive: -0.045
OTUD6B (UniProt Q8N6M0),inactive: 0.004,inactive: -0.002,inactive: 0.042,inactive: -0.059,inactive: -0.057,inactive: 0.022,inactive: 0.112,inactive: -0.139,inactive: 0.007,inactive: -0.033,inactive: 0.049,inactive: 0.032,inactive: 0.016,inactive: 0.026,inactive: -0.033,inactive: -0.009,inactive: 0.001,inactive: -0.029,inactive: -0.012,inactive: -0.017
PARL (UniProt Q9H300),inactive: 0.004,inactive: 0.033,inactive: 0.048,inactive: -0.012,inactive: 0.012,inactive: -0.012,inactive: -0.047,inactive: -0.026,inactive: -0.024,inactive: -0.02,inactive: 0.022,inactive: 0.02,inactive: 0.036,inactive: 0.05,inactive: -0.044,inactive: -0.005,inactive: 0.057,inactive: 0.006,inactive: -0.01,inactive: -0.052
OXSM (UniProt Q9NWU1),inactive: -0.013,inactive: 0.036,inactive: -0.045,inactive: 0.042,inactive: 0.035,inactive: -0.028,inactive: -0.111,inactive: 0.069,inactive: 0,inactive: -0.007,inactive: -0.01,inactive: 0.062,inactive: -0.004,inactive: 0.003,inactive: 0.035,inactive: -0.033,inactive: -0.031,inactive: -0.03,inactive: -0.016,inactive: 0
OTULIN (UniProt Q96BN8),inactive: -0.056,inactive: -0.003,inactive: -0.002,inactive: -0.035,inactive: -0.015,inactive: 0.036,inactive: -0.013,inactive: 0.026,inactive: 0.004,inactive: -0.029,inactive: 0.021,inactive: -0.067,inactive: -0.029,inactive: 0.015,inactive: -0.022,inactive: 0.006,inactive: -0.034,inactive: 0.009,inactive: 0.017,inactive: 0.008
OSTC (UniProt Q9NRP0),inactive: -0.126,inactive: -0.009,inactive: 0.177,inactive: -0.158,inactive: 0.04,inactive: 0.036,inactive: -0.157,inactive: 0.024,inactive: 0.142,inactive: -0.055,inactive: -0.003,inactive: -0.091,inactive: 0.019,inactive: 0.043,inactive: 0.061,inactive: 0.037,inactive: -0.292,inactive: -0.15,inactive: -0.048,inactive: 0.055
NUP85 (UniProt Q9BW27),inactive: 0.002,inactive: 0.021,inactive: 0.002,inactive: -0.111,inactive: -0.209,inactive: -0.001,inactive: -0.09,inactive: 0.082,inactive: 0.025,inactive: -0.026,inactive: -0.012,inactive: -0.019,inactive: -0.015,inactive: -0.009,inactive: 0.013,inactive: 0.04,inactive: -0.121,inactive: 0,inactive: 0.021,inactive: 0.014
NUP37 (UniProt Q8NFH4),inactive: 0.019,inactive: 0.002,inactive: -0.001,inactive: -0.095,inactive: -0.029,inactive: 0.029,inactive: -0.116,inactive: 0.011,inactive: -0.015,inactive: 0.006,inactive: -0.02,inactive: -0.038,inactive: 0.001,inactive: -0.012,inactive: -0.032,inactive: 0,inactive: -0.016,inactive: 0.023,inactive: 0.022,inactive: 0.011
PALMD (UniProt Q9NP74),inactive: 0.038,inactive: -0.014,inactive: -0.062,inactive: 0.199,inactive: 0.029,inactive: 0.153,inactive: 0.07,inactive: 0.02,inactive: -0.055,inactive: -0.011,inactive: -0.057,inactive: 0.016,inactive: 0.137,inactive: 0.044,inactive: -0.017,inactive: 0.039,inactive: 0.116,inactive: -0.022,inactive: -0.031,inactive: 0.118
PAIP2 (UniProt Q9BPZ3),inactive: 0,inactive: -0.013,active: 0.272,inactive: 0.039,inactive: -0.018,inactive: 0.02,inactive: -0.043,inactive: -0.001,inactive: -0.081,inactive: -0.073,inactive: 0.009,inactive: 0.045,inactive: -0.03,inactive: -0.056,inactive: 0.037,inactive: -0.092,inactive: 0.071,inactive: -0.038,inactive: -0.049,inactive: -0.019
PANX1 (UniProt Q96RD7),inactive: 0.018,inactive: -0.022,inactive: -0.022,inactive: -0.003,inactive: 0.017,inactive: 0.022,inactive: -0.036,inactive: -0.006,inactive: -0.009,inactive: 0.068,inactive: 0.036,inactive: -0.028,inactive: 0.011,inactive: 0.023,inactive: 0.016,inactive: -0.009,inactive: -0.072,inactive: 0.026,inactive: 0.022,inactive: 0.081
OXCT1 (UniProt P55809),inactive: 0.002,inactive: 0.032,inactive: 0.005,inactive: 0.018,inactive: 0.009,inactive: -0.014,inactive: 0.011,inactive: -0.019,inactive: -0.021,inactive: -0.012,inactive: 0.042,inactive: 0.023,inactive: -0.004,inactive: -0.008,inactive: 0.005,inactive: 0.001,inactive: 0.042,inactive: -0.026,inactive: -0.01,inactive: -0.008
OSBPL9 isoform 2 (UniProt Q96SU4),inactive: 0.004,inactive: 0.047,inactive: 0.067,inactive: 0.011,inactive: -0.062,inactive: 0.08,inactive: -0.067,inactive: 0.043,inactive: 0.009,inactive: 0,inactive: -0.008,inactive: 0.015,inactive: 0.029,inactive: 0.044,inactive: -0.031,inactive: -0.015,inactive: 0.104,inactive: 0.045,inactive: 0.051,inactive: -0.027
NUP210 (UniProt Q8TEM1),inactive: -0.009,inactive: 0.048,inactive: 0.072,inactive: -0.004,inactive: 0.006,inactive: 0.036,inactive: 0.012,inactive: -0.015,inactive: 0.029,inactive: -0.004,inactive: 0.014,inactive: 0.107,inactive: -0.061,inactive: 0.035,inactive: -0.011,inactive: 0.086,inactive: 0.145,inactive: 0.009,inactive: 0.002,inactive: 0.003

# As entered above:
# log2 fold change [17] with NUP37 (UniProt Q8NFH4) is entered as inactive: -0.016
# log2 fold change [7] with OTULIN (UniProt Q96BN8) is entered as inactive: -0.013
